Source: PubChem BioAssay AID1508597 (Cure First, 2020)

Purpose: 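Knock-downs altering ovarian cancer cell survival with or without PARP inhibitor rucaparib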 (primary screen)
Cell system: human ovarian carcinoma lines grown from tumours: OCI-P5x (papillary serous) and OCI-C5x (clear cell)
Reagent: siRNA pool against human genes, 1.25 pmol siRNA per well
Time to read-out: 72 h or 96 h, depending on the cell culture
Conditions: rucaparib 20 µM (about IC30) or vehicle, present until read-out
Rucaparib or vehicle: Rucaparib
Cell line: OCI-C5x (clear cell)
Read-out: 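ATP luminescence measured at 72 or 96 h according to the culture, then normalised and expressed as percent viability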
Scale: viability, normalised: higher = more viable cells remaining
Hit rule: 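Active when normalised viability falls below 80 percent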
Calls: active = viability under 80%; inactive = viability 80% or more
Shown is an unselected part of the about 2,100 reagents, under one of the conditions tested. 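Calls flag viability under 80% in either arm, not effects specific to rucaparib; the reference for percent is not stated.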 Reagent sequences are not shown. Not given: the 100% reference.

{"Gene": "DHX38", "technical replicate": "1", "viability, normalised (%)": 50.5, "outcome": "active"}
{"Gene": "DHX38", "technical replicate": "2", "viability, normalised (%)": 60, "outcome": "active"}
{"Gene": "DHX38", "technical replicate": "3", "viability, normalised (%)": 50.6, "outcome": "active"}
{"Gene": "ALPK3", "technical replicate": "1", "viability, normalised (%)": 42.2, "outcome": "active"}
{"Gene": "ALPK3", "technical replicate": "2", "viability, normalised (%)": 31.8, "outcome": "active"}
{"Gene": "ALPK3", "technical replicate": "3", "viability, normalised (%)": 37.9, "outcome": "active"}
{"Gene": "IFI6", "technical replicate": "1", "viability, normalised (%)": 26.5, "outcome": "active"}
{"Gene": "IFI6", "technical replicate": "2", "viability, normalised (%)": 24, "outcome": "active"}
{"Gene": "IFI6", "technical replicate": "3", "viability, normalised (%)": 27.5, "outcome": "active"}
{"Gene": "SOX1", "technical replicate": "1", "viability, normalised (%)": 37.8, "outcome": "active"}
{"Gene": "SOX1", "technical replicate": "2", "viability, normalised (%)": 45.8, "outcome": "active"}
{"Gene": "SOX1", "technical replicate": "3", "viability, normalised (%)": 42.7, "outcome": "active"}
{"Gene": "GNAT1", "technical replicate": "1", "viability, normalised (%)": 43.9, "outcome": "active"}
{"Gene": "GNAT1", "technical replicate": "2", "viability, normalised (%)": 31.3, "outcome": "active"}
{"Gene": "GNAT1", "technical replicate": "3", "viability, normalised (%)": 49.8, "outcome": "active"}
{"Gene": "DYRK2", "technical replicate": "1", "viability, normalised (%)": 55, "outcome": "active"}
{"Gene": "DYRK2", "technical replicate": "2", "viability, normalised (%)": 48.4, "outcome": "active"}
{"Gene": "DYRK2", "technical replicate": "3", "viability, normalised (%)": 51.1, "outcome": "active"}
{"Gene": "PCM1", "technical replicate": "1", "viability, normalised (%)": 38.6, "outcome": "active"}
{"Gene": "PCM1", "technical replicate": "2", "viability, normalised (%)": 34.3, "outcome": "active"}
{"Gene": "PCM1", "technical replicate": "3", "viability, normalised (%)": 39.5, "outcome": "active"}
